This test concerns the target T1, Metastasis Associated in Colon Cancer 1 (MACC1), endogenous in SW620 cells (human (endogenous in SW620)) (UniProt Q6ZN28).
T1 sequence: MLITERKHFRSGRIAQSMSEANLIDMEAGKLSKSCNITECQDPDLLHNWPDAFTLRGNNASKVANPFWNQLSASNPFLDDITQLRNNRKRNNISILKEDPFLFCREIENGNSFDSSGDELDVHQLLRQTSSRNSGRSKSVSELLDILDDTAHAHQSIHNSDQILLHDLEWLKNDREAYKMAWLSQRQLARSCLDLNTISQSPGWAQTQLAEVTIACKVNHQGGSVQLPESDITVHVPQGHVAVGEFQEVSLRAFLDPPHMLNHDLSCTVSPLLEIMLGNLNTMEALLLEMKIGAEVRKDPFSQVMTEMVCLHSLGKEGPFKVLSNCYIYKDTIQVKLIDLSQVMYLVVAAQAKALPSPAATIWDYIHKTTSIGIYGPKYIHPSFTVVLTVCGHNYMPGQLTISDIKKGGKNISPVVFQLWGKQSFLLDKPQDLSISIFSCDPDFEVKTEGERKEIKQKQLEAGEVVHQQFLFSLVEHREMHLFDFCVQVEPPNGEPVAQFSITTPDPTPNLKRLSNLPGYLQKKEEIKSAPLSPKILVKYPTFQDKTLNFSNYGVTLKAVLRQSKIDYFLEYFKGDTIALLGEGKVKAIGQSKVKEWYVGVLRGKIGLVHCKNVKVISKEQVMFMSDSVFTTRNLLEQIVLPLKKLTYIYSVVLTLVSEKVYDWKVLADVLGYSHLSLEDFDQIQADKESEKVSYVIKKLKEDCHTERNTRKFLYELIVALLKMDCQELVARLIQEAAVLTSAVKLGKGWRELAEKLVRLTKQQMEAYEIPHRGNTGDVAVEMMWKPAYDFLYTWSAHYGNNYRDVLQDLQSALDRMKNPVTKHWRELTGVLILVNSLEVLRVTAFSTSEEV
The experiment in a line: affinity purification with mass spectrometry; immunoprecipitation of SW620 cells with two polyclonal rabbit anti-human MACC1 antibodies (HPA020103, HPA020081), 4 times independently; shot-gun proteomics (Q-Exactive, MaxQuant).

These are yes or no findings as the source states them, for the method shown. In cells and extracts the contact can be indirect. These calls come from enrichment with a bait or labelling near it, and not all partners need be listed.

B1: dynamin 1 (DNM1) (protein, UniProt Q05193 1-864)
chain: MGNRGMEDLIPLVNRLQDAFSAIGQNADLDLPQIAVVGGQSAGKSSVLENFVGRDFLPRGSGIVTRRPLVLQLVNATTEYAEFLHCKGKKFTDFEEVRLEIEAETDRVTGTNKGISPVPINLRVYSPHVLNLTLVDLPGMTKVPVGDQPPDIEFQIRDMLMQFVTKENCLILAVSPANSDLANSDALKVAKEVDPQGQRTIGVITKLDLMDEGTDARDVLENKLLPLRRGYIGVVNRSQKDIDGKKDITAALAAERKFFLSHPSYRHLADRMGTPYLQKVLNQQLTNHIRDTLPGLRNKLQSQLLSIEKEVEEYKNFRPDDPARKTKALLQMVQQFAVDFEKRIEGSGDQIDTYELSGGARINRIFHERFPFELVKMEFDEKELRREISYAIKNIHGIRTGLFTPDMAFETIVKKQVKKIREPCLKCVDMVISELISTVRQCTKKLQQYPRLREEMERIVTTHIREREGRTKEQVMLLIDIELAYMNTNHEDFIGFANAQQRSNQMNKKKTSGNQDEILVIRKGWLTINNIGIMKGGSKEYWFVLTAENLSWYKDDEEKEKKYMLSVDNLKLRDVEKGFMSSKHIFALFNTEQRNVYKDYRQLELACETQEEVDSWKASFLRAGVYPERVGDKEKASETEENGSDSFMHSMDPQLERQVETIRNLVDSYMAIVNKTVRDLMPKTIMHLMINNTKEFIFSELLANLYSCGDQNTLMEESAEQAQRRDEMLRMYHALKEALSIIGDINTTTVSTPMPPPVDDSWLQVQSVPAGRRSPTSSPTPQRRAPAVPPARPGSRGPAPGPPPAGSALGGAPPVPSRPGASPDPFGPPPQVPSRPNRAPPGVPSRSGQASPSRPESPRPPFDL
As to B1, the binding entry is given as “binds”.

For the origin of these results see PMC8038998.
